No constants are given. Whether binding was seen depends on the method and setting. Some results given as binding are weak or reduced against the parent protein; the word gives no strength. Values belong to the substance of their own block, whether it stands above or below them.
Tests used:
[1] = molecular target: HA-SNAP-mGluR2 (rat) (UniProt P31421); experiment: two-colour single-molecule pulldown (SiMPull); HA-SNAP construct (BG-LD655) and CLIP construct (BC-DY547) co-expressed in HEK 293T cells; complexes from lysate captured by anti-HA antibody; DY547 spots counted against LD655 spots, background of CLIP construct alone subtracted
[2] = molecular target: HA-SNAP-mGluR2-C121A (rat) (UniProt P31421); experiment: as above
[3] = molecular target: HA-SNAP-mGluR3-C127A (rat) (UniProt P31422); experiment: as above
[4] = molecular target: HA-SNAP-mGluR2-C121A (rat) (UniProt P31421); experiment: single-molecule pulldown (SiMPull) with photobleaching step counting; HEK 293T cells surface-labelled with BG-LD555, lysed in 1.2% IGEPAL, diluted in 0.1% IGEPAL buffer; HA-SNAP constructs captured by biotinylated anti-HA antibody on NeutrAvidin/PEG slides; TIRF; percent dimerization = two-step bleaching min-max normalised (5% background, 55% for full-length mGluR2); in some experiments saturating ligands (TASP, MNI 137, glutamate, LY34) kept from cell dissociation on
[5] = molecular target: SNAP-mGluR2-C121A-3xTM4 (rat) (UniProt P31421); experiment: as above
[6] = molecular target: SNAP-mGluR2-C121A-I779A (rat) (UniProt P31421); experiment: as above
[7] = molecular target: SNAP-mGluR3-3xTM4 (rat) (UniProt P31422); experiment: as above
[8] = molecular target: SNAP-mGluR3-C127A-I788A (rat) (UniProt P31422); experiment: as above

By UniProt entry, the sequences of proteins in these tests, tags left out. Where a name states a change or a piece, a line headed by the entry shows the natural chain unless it says otherwise. Chains listed by the source or under a name are the forms on record and can include a tag or linker. Residues count along the entry.
HA-SNAP-mGluR2 (P31421, residues 19-872): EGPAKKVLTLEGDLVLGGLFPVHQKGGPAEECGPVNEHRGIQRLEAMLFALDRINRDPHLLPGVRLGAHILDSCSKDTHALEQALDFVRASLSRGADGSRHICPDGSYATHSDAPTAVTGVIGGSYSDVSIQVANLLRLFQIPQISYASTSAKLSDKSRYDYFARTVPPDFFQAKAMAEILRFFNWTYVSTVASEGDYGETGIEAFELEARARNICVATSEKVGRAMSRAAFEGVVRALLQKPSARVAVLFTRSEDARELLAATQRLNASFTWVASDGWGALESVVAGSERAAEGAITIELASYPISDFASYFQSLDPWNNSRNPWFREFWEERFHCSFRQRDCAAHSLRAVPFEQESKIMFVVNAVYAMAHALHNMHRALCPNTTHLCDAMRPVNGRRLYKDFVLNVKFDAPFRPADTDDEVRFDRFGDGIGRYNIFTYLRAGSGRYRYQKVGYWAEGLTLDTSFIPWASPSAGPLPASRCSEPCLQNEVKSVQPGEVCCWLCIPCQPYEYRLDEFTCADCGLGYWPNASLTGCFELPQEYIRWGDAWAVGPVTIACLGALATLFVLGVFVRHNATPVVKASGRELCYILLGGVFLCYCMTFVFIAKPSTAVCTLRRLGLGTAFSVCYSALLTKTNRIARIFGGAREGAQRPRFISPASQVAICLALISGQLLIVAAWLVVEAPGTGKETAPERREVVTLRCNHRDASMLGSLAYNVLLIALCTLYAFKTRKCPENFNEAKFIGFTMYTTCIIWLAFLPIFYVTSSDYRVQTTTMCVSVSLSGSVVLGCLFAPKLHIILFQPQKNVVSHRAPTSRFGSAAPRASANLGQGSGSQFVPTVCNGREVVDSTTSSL
HA-SNAP-mGluR2-C121A (P31421, form named): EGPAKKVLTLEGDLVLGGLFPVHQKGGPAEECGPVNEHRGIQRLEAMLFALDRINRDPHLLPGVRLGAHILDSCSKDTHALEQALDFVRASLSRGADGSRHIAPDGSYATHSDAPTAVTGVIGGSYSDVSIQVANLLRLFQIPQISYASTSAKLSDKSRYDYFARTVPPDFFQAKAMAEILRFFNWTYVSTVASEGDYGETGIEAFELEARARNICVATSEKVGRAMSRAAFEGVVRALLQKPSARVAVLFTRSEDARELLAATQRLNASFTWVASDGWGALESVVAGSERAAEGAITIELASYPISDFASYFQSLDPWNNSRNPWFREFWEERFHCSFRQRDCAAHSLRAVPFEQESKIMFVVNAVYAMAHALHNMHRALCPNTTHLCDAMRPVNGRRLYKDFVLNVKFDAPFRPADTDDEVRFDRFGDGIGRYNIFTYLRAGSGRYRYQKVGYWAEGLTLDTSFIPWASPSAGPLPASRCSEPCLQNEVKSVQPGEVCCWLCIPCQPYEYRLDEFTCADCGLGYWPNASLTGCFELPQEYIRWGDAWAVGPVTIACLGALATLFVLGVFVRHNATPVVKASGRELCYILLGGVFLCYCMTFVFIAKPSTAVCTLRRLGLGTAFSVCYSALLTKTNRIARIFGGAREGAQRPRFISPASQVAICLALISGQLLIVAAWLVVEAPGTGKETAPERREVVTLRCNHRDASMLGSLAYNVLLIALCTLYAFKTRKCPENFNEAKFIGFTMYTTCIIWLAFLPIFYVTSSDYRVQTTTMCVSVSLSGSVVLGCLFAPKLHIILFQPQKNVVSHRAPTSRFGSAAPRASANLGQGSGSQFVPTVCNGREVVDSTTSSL
CLIP-mGluR3 (P31422, residues 23-879): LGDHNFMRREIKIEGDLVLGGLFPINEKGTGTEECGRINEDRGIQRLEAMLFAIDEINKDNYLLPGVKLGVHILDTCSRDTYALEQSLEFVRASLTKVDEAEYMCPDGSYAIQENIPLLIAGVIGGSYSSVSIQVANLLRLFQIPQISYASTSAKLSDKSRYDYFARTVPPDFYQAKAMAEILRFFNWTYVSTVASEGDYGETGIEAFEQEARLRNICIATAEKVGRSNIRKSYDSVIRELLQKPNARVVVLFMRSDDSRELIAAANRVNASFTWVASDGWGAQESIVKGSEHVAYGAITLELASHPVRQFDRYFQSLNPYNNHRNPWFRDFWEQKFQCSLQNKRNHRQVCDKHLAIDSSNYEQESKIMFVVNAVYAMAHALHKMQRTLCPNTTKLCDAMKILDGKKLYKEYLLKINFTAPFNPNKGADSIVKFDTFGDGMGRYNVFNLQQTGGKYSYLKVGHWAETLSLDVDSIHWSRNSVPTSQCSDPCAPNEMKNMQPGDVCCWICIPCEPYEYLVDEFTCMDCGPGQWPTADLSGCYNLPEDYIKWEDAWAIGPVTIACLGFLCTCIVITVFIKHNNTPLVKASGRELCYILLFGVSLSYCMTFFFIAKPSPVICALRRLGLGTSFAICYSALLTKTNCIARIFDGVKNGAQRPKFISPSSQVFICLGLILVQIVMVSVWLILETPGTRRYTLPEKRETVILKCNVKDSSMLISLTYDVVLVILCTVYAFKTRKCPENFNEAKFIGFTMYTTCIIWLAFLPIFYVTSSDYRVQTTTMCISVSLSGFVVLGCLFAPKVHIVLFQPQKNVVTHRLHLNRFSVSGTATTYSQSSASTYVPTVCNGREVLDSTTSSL
HA-SNAP-mGluR3-C127A (P31422, form named): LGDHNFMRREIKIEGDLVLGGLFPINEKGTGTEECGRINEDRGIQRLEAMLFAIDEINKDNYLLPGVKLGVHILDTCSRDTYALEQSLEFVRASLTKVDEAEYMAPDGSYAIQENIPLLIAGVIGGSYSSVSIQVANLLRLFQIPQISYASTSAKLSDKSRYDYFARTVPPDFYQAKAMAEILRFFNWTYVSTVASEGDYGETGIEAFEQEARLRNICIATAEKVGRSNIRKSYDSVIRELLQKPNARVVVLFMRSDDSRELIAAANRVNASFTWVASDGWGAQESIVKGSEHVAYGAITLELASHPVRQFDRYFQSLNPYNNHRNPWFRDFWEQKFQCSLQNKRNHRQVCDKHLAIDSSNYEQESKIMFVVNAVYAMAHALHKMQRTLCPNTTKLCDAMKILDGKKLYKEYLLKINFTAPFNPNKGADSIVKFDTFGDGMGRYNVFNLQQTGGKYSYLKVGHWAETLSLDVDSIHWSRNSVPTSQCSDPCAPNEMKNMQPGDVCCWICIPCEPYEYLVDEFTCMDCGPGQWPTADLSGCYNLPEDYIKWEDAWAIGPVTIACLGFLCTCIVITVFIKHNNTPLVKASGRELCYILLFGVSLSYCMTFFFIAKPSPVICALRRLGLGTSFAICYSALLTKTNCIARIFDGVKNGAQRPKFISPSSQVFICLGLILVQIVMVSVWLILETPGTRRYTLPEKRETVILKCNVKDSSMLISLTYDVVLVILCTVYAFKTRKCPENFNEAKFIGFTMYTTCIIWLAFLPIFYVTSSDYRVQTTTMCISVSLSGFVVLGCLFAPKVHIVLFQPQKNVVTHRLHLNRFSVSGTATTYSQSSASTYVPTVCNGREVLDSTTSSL
CLIP-mGluR3-C127A-3xTM4 (P31422, form named): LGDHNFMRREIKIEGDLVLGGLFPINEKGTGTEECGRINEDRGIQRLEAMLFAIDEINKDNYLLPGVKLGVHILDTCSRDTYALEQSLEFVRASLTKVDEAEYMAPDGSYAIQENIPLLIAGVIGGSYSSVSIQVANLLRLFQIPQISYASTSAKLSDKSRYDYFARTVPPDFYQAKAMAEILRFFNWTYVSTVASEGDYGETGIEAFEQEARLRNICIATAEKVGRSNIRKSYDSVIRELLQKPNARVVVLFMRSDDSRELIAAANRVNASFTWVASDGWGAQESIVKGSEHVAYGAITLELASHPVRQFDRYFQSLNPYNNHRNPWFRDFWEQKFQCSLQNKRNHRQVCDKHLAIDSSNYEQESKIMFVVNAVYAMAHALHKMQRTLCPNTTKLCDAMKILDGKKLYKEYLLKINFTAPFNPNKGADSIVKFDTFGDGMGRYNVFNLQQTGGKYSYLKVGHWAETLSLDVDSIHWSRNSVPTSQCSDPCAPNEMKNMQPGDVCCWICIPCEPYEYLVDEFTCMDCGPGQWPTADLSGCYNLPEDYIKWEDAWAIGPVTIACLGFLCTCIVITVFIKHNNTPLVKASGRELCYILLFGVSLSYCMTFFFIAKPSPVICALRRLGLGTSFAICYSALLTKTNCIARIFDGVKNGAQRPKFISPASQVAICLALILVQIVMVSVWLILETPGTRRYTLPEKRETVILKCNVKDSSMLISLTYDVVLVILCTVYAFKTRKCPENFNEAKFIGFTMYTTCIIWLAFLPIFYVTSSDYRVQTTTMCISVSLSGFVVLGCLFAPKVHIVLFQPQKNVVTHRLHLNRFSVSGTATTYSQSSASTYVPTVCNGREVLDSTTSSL
SNAP-mGluR3-3xTM4 (P31422, form named): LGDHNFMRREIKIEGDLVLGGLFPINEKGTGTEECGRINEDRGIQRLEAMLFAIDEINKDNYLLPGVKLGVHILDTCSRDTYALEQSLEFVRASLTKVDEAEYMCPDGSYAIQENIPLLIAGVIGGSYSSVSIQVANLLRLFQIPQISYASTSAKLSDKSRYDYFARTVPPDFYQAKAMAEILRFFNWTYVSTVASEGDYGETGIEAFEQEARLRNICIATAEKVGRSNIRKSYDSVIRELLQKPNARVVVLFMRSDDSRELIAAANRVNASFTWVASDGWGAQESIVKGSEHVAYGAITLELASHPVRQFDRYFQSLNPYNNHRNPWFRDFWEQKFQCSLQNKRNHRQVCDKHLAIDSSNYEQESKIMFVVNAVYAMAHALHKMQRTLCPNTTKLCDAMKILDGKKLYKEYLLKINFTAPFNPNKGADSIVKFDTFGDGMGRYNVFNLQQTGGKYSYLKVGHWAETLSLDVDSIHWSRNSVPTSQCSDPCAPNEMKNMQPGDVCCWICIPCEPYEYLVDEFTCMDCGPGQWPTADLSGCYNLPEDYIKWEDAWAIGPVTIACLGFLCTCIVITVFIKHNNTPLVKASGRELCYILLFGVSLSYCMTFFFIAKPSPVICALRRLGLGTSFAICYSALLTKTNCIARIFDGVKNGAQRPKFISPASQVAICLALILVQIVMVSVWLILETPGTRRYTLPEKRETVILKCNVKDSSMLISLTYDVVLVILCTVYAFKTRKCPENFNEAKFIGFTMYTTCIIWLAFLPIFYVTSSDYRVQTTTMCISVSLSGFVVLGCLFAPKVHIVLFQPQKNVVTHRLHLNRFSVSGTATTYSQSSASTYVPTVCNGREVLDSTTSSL
SNAP-mGluR3-C127A-I788A (P31422, form named): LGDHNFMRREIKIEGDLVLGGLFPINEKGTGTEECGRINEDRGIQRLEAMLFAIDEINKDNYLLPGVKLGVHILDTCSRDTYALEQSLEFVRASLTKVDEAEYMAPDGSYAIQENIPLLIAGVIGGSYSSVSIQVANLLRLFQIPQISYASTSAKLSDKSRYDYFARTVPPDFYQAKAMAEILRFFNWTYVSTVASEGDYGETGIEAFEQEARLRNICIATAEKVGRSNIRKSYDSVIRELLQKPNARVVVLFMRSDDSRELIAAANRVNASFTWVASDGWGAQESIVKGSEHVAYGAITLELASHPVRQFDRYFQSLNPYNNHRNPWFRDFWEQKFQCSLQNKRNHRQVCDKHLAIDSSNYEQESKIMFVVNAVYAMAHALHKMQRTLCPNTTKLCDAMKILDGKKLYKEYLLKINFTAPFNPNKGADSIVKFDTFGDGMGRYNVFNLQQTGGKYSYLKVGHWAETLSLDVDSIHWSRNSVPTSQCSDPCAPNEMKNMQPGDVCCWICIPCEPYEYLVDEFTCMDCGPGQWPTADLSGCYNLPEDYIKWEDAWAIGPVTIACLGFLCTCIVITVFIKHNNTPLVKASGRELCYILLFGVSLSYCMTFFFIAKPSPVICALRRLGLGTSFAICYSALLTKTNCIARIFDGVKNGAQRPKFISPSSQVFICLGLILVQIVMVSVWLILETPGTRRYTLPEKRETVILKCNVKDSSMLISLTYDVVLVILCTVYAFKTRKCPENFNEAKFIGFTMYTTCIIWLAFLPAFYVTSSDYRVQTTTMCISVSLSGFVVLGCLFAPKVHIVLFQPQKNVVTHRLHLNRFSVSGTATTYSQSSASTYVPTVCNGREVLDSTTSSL

binding [1]: binds
Substance: CLIP-mGluR2 (from UniProt P31421 19-872) (receptor)

binding [2]: binds | binding [3]: binds
Substance: CLIP-mGluR2-C121A (from UniProt P31421 19-872) (receptor)

binding [3]: binds
Substance: CLIP-mGluR2-C121A-3xTM4 (from UniProt P31421 19-872) (receptor)

binding [1]: binds
Substance: CLIP-mGluR3 (from UniProt P31422 23-879) (receptor)

binding [2]: binds | binding [3]: binds
Substance: CLIP-mGluR3-C127A (from UniProt P31422 23-879) (receptor)

binding [2]: binds
Substance: CLIP-mGluR3-C127A-3xTM4 (from UniProt P31422 23-879) (receptor)

binding [4]: binds
Substance: HA-SNAP-mGluR2-C121A (from UniProt P31421 19-872) (receptor)

binding [5]: binds
Substance: SNAP-mGluR2-C121A-3xTM4 (from UniProt P31421 19-872) (receptor)

binding [6]: binds
Substance: SNAP-mGluR2-C121A-I779A (from UniProt P31421 19-872) (receptor)

binding [7]: binds
Substance: SNAP-mGluR3-3xTM4 (from UniProt P31422 23-879) (receptor)

binding [8]: binds
Substance: SNAP-mGluR3-C127A-I788A (from UniProt P31422 23-879) (receptor)
